These results are taken from the supplement of paper PMC7877785.

± gives the uncertainty stated by the source. The uncertainty is large for many entries.

A short description of the data set: self-splicing fitness, log relative to wild type (ln ratio); higher = more splicing; Tetrahymena group I intron in knt gene, E. coli kanamycin selection, DiMSum; sequences stand for … in CUCUCU…GGAGGGAAAAGUUAUCAGGCAUGCACCUGGUAGCUAGUCUUUAAACCAAUAGAUUGCAUCGGUUUAAAAGGCAAGACCGUCAAAUUGCGGGAAAGGGGUCAACAGCCGUUCAGUACCAAGUCUCAGGGGAAACUUUGAGAUGGCCUUGCAAAGGGUAUGGUAAUAAGCUGACGGACAUGGUCCUAACCACGCAGCCAAGUCCUAAGUCAACAGAUCUUCUGUUGAUAUGGAUGCAGUUCACAGACUAAAUGUCGGUCGGGGAAGAUGUAUUCUUCUCAUAAGAUAUAGUCGGACCUCUCCUUAAUGGGAGCUAGCGGAUGAAGUGAUGCAACACUGGAGCCGCUGGGAACUAAUUUGUAUGCGAAAGUAUAUUGAUUAGUUUUGGAGUACUCGUGGUCG
The essentials: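 A randomised library covering all eight P1ex-region intron nucleotides was built with the intron in the knt kanamycin-resistance gene on pET-22b(+) and held in E. coli BL21(DE3). Cells were grown overnight at 37°C or 30°C on LB agar, with or without 25 μg/mL kanamycin, plus 100 μg/mL carbenicillin, 50 μM IPTG and 0.2% rhamnose, and pooled colonies were amplicon-sequenced on an Illumina HiSeq 2500. DiMSum fitness is the error-weighted combination of wild-type-normalised replicate fold changes, kanamycin versus none.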

On to ACGCAGCAAUAUUACGUCCC, for which the “self-splicing fitness (ln)” value reads like this: (30 °C) 0.0234 ± 0.64; (37 °C) -0.268 ± 0.48.
Turning to GUAUAGCAAUAUUACGAACG, the “self-splicing fitness (ln)” value (37 °C) is -1.31 ± 0.88.
For the sequence GUGGAGCAAUAUUACGAAAC, the “self-splicing fitness (ln)” value (30 °C) is -4.39 ± 0.59.
UGGCAGCAAUAUUACGCCGC: the “self-splicing fitness (ln)” value reads like this: (30 °C) -3.5 ± 0.64; (37 °C) -2.98 ± 1.1.
Turning to AUGGAGCAAUAUUACGAGUA, the “self-splicing fitness (ln)” value by setting is: (30 °C) -2.37 ± 0.55; (37 °C) -2.93 ± 0.75.
Consider UGAUAGCAAUAUUACGGUGC, for which, where the note is “37 °C”, the “self-splicing fitness (ln)” value was -2.2 ± 1.1.
With CCGGAGCAAUAUUACGCUCG, the “self-splicing fitness (ln)” value was -3.16 ± 0.28 (30 °C) and -3.52 ± 0.73 (37 °C).
The corresponding values for AUGCAGCAAUAUUACGCCCU are -0.387 ± 0.22 and 0.0709 ± 0.25.
The corresponding values for GAAGAGCAAUAUUACGAAGG are -2.75 ± 0.17 and -3.62 ± 0.46.
As for GUGUAGCAAUAUUACGAGCA, the “self-splicing fitness (ln)” value runs as follows: (30 °C) 0.787 ± 0.61; (37 °C) -1.32 ± 0.51.
Turning to GACGAGCAAUAUUACGUCGG, the “self-splicing fitness (ln)” value (30 °C) is -4.28 ± 0.73.
For CGUUAGCAAUAUUACGCUAA, for the setting “30 °C”, the “self-splicing fitness (ln)” value is -3.12 ± 0.76.
As to GAGCAGCAAUAUUACGCUUC, the “self-splicing fitness (ln)” value runs as follows: (30 °C) -2.37 ± 0.28; (37 °C) -3.7 ± 1.
On the same counts, the results for UCAUAGCAAUAUUACGCAGU are -4.03 ± 0.36 and -3.4 ± 0.31.
As for CCGCAGCAAUAUUACGAACU, where the note is “37 °C”, the “self-splicing fitness (ln)” value was -2.74 ± 0.61.
On to CCACAGCAAUAUUACGCUCC, for which the “self-splicing fitness (ln)” value reads like this: (30 °C) -3.6 ± 0.54; (37 °C) -2.14 ± 0.63.
For CAAAAGCAAUAUUACGGAAU, the “self-splicing fitness (ln)” value (30 °C) is -3.21 ± 0.21 and the “self-splicing fitness (ln)” value (37 °C) was -2.56 ± 0.17.
Take UCGCAGCAAUAUUACGCGGC: under “30 °C”, the “self-splicing fitness (ln)” value was -4.69 ± 0.72.
With UUUCAGCAAUAUUACGCACC, the “self-splicing fitness (ln)” value by setting is: (30 °C) -1.56 ± 1.2; (37 °C) -0.234 ± 1.4.
For UCCUAGCAAUAUUACGCUAG, for the setting “37 °C”, the “self-splicing fitness (ln)” value is -3.15 ± 0.62.
Turning to GCAUAGCAAUAUUACGGCAA, the “self-splicing fitness (ln)” value (30 °C) is -1.49 ± 0.18 and the “self-splicing fitness (ln)” value (37 °C) was -0.271 ± 0.17.
For the sequence CUGCAGCAAUAUUACGCCGA, for the setting “30 °C”, the “self-splicing fitness (ln)” value is -4.48 ± 0.59.
For the sequence CGCUAGCAAUAUUACGCGCA, the “self-splicing fitness (ln)” value was -1.81 ± 0.17 (30 °C) and -1.52 ± 0.17 (37 °C).
In the case of GGUGAGCAAUAUUACGCUCG, for the setting “30 °C”, the “self-splicing fitness (ln)” value is -3.53 ± 0.6.
Same read-out and setting: the same measure for CUUGAGCAAUAUUACGCCUU: -4.16 ± 0.59.
Same read-out and setting: for GCUGAGCAAUAUUACGUCGG the value was -1.75 ± 0.55.
As to GCAUAGCAAUAUUACGUCUU, the “self-splicing fitness (ln)” value was -1.46 ± 0.1 (30 °C) and -0.342 ± 0.11 (37 °C).
For the sequence GCGCAGCAAUAUUACGCAGC, the “self-splicing fitness (ln)” value (30 °C) is -4.49 ± 0.59.
Take GAACAGCAAUAUUACGUAUU: the “self-splicing fitness (ln)” value was -1.57 ± 0.063 (30 °C) and -0.99 ± 0.075 (37 °C).
On the same counts, the results for CCAGAGCAAUAUUACGUGUG are -1.69 ± 0.091 and -1.54 ± 0.097.
With CGGGAGCAAUAUUACGUAAC, the “self-splicing fitness (ln)” value (37 °C) is -4.3 ± 0.59.
Same read-out and setting: for AAGUAGCAAUAUUACGCCUC the value was -1.49 ± 0.61.
UGCUAGCAAUAUUACGUAGC: the “self-splicing fitness (ln)” value is 0.239 ± 1.2 (30 °C) and -1.18 ± 0.56 (37 °C).
As to UGCUAGCAAUAUUACGUACC, under “30 °C”, the “self-splicing fitness (ln)” value is -2.44 ± 1.1.
On to UGGAAGCAAUAUUACGCUCC, for which the “self-splicing fitness (ln)” value is -3.96 ± 0.73 (30 °C) and -3.45 ± 0.6 (37 °C).
The corresponding values for AAUGAGCAAUAUUACGCAUC are -3.92 ± 0.53 and -3.22 ± 0.6.
The corresponding values for UUUUAGCAAUAUUACGACUU are -1.64 ± 0.32 and -1.14 ± 0.33.
Take AGAGAGCAAUAUUACGCUCU: the “self-splicing fitness (ln)” value (37 °C) was -0.693 ± 0.82.
As for AGAGAGCAAUAUUACGUCCU, the “self-splicing fitness (ln)” value reads like this: (30 °C) -2.25 ± 0.12; (37 °C) -0.89 ± 0.13.
The corresponding values for CGUGAGCAAUAUUACGAAAU are -4.18 ± 0.6 and -3.62 ± 0.6.
With AUCCAGCAAUAUUACGCACG, the “self-splicing fitness (ln)” value by setting is: (30 °C) -1.68 ± 0.12; (37 °C) -0.334 ± 0.13.
Consider UACGAGCAAUAUUACGCCAA, for which, under “37 °C”, the “self-splicing fitness (ln)” value was -2.65 ± 0.75.
Still for that read-out and setting: the same measure for UGAUAGCAAUAUUACGCAAC: -1.69 ± 0.84.
AGCGAGCAAUAUUACGGGCU: the “self-splicing fitness (ln)” value (30 °C) was -3.44 ± 0.6.
